# System: human peripheral blood mononuclear cell (PBMC)
# Assay: antigen recall assay (IFNγ secretion by CMV-stimulated PBMC, ELISA)
# Assay type: cell-based
# Details: co-treatment: 1 µM HSD11B1 inhibitor + 1 µg/ml anti PD-1 (G4K), compared to anti-PD-1 or HSD11B1 inhibitor alone, 1 µg/ml CMV antigen, 50 ng/ml cortisone, 6 days, Fig. 1
# Text: Response to immunotherapy rely on critical biological steps including antigen presentation and T cell activation. Therefore, the therapeutic potential of combining immunotherapy with HSD11B1 inhibition was investigated in an antigen recall assay as described below. Antigen recall assay is the gold standard in vitro method to assess the bioactivity of immune checkpoint inhibitors because it measures at the same time the potential of antigen presenting cells to activate T cell and the actual T cell activation, taking into account thereby the two critical mechanisms required for an optimal response to immunotherapy. The level of IFNγ secreted in this human immune cell-based assay is considered as a good indicator of the T cells activation to immunomodulatory molecules. Cryopreserved human peripheral blood mononuclear cell (PBMC) isolated from cytomegalovirus (CMV) positive heathy donors were thawed in a 37°C water bath and seeded in round bottom 96 well plates at 2 X 10^5 cells/well in 150 µL final volume of RPMI media supplemented with 10% fetal bovin serum, 1% non-essential amino acids, 0.01M Hepes, 1% Penicilin/Streptomycin, 1% L-glutamine and 50 ng/ml cortisone). […]
compound,measurement,value
"N#Cc1ccc(-c2ccc(S(=O)(=O)Nc3cccc(N)n3)cc2)cc1 [PF-915275, N-(6-aminopyridin-2-yl)-4-(4-cyanophenyl) benzene sulfonamide]",level on IFNγ,significantly increased

# From patent EP3878446A1, “HSD11B1 INHIBITORS FOR USE IN IMMUNOTHERAPY AND USES THEREOF” (UNIVERSITE DE GENEVE, priority 2020, dated 2021)
